The chains are these.
B1: 72T 73W 74G (protein, listed as Rattus norvegicus)
chain: AFDGTWKVDRNENYEKFMEKMGINVVKRKLGAHDNLKLTITQEGNKFTVKESSNFRNIDVVFELGVDFAYSTWGGTELTGTWTMEGNKLVGKFKRVDNGKELIAVREISGNELIQTYTYEGVEAKRIFKKE
modifications: PEPTIDE (1)...(131) wild-type rat intestinal fatty acid binding protein
B2: 73W 74I (protein, listed as Rattus norvegicus)
chain: B1 chain with T72L, G74I
modifications: PEPTIDE (1)...(131) wild-type rat intestinal fatty acid binding protein
B3: 38Y 74F 72A (protein, listed as Rattus norvegicus)
chain: B1 chain with L38Y, T72A, W73A, G74F
modifications: PEPTIDE (1)...(131) wild-type rat intestinal fatty acid binding protein
B4: 106W, 72A (protein, listed as Rattus norvegicus)
chain: B1 chain with T72A, W73A, G74D, R106W
modifications: PEPTIDE (1)...(131) wild-type rat intestinal fatty acid binding protein
B5: 117A, 72A (protein, listed as Rattus norvegicus)
chain: B1 chain with T72A, W73A, G74D, Y117A
modifications: PEPTIDE (1)...(131) wild-type rat intestinal fatty acid binding protein
B6: 106L3, 72A (protein, listed as Rattus norvegicus)
chain: B1 chain with T72A, W73A, G74D, R106L
modifications: PEPTIDE (1)...(131) wild-type rat intestinal fatty acid binding protein
B7: 106Y1, 72A (protein, listed as Rattus norvegicus)
chain: B1 chain with T72A, W73A, G74D, R106Y
modifications: PEPTIDE (1)...(131) wild-type rat intestinal fatty acid binding protein
B8: 115Y1, 72A (protein, listed as Rattus norvegicus)
chain: B1 chain with T72A, W73A, G74D, Q115Y
modifications: PEPTIDE (1)...(131) wild-type rat intestinal fatty acid binding protein
B9: 115L3, 72A (protein, listed as Rattus norvegicus)
chain: B1 chain with T72A, W73A, G74D, Q115L
modifications: PEPTIDE (1)...(131) wild-type rat intestinal fatty acid binding protein
B10: 115I3, 72A (protein, listed as Rattus norvegicus)
chain: B1 chain with T72A, W73A, G74D, Q115I
modifications: PEPTIDE (1)...(131) wild-type rat intestinal fatty acid binding protein
B11: 115E1, 72A (protein, listed as Rattus norvegicus)
chain: B1 chain with T72A, W73A, G74D, Q115E
modifications: PEPTIDE (1)...(131) wild-type rat intestinal fatty acid binding protein
B12: 106N1, 72A (protein, listed as Rattus norvegicus)
chain: B1 chain with T72A, W73A, G74D, R106N
modifications: PEPTIDE (1)...(131) wild-type rat intestinal fatty acid binding protein
B13: 102C, 72A (protein, listed as Rattus norvegicus)
chain: B1 chain with T72A, W73A, G74D, L102C
modifications: PEPTIDE (1)...(131) wild-type rat intestinal fatty acid binding protein
B14: 106Q, 72A (protein, listed as Rattus norvegicus)
chain: B1 chain with T72A, W73A, G74D, R106Q
modifications: PEPTIDE (1)...(131) wild-type rat intestinal fatty acid binding protein
B15: 117D, 72A (protein, listed as Rattus norvegicus)
chain: B1 chain with T72A, W73A, G74D, Y117D
modifications: PEPTIDE (1)...(131) wild-type rat intestinal fatty acid binding protein
B16: 115A1, 72A (protein, listed as Rattus norvegicus)
chain: B1 chain with T72A, W73A, G74D, Q115A
modifications: PEPTIDE (1)...(131) wild-type rat intestinal fatty acid binding protein
B17: 106S2, 72A (protein, listed as Rattus norvegicus)
chain: B1 chain with T72A, W73A, G74D, R106S
modifications: PEPTIDE (1)...(131) wild-type rat intestinal fatty acid binding protein
B18: 115K3, 72A (protein, listed as Rattus norvegicus)
chain: B1 chain with T72A, W73A, G74D, Q115K
modifications: PEPTIDE (1)...(131) wild-type rat intestinal fatty acid binding protein
B19: 115S1, 72A (protein, listed as Rattus norvegicus)
chain: B1 chain with T72A, W73A, G74D, Q115S
modifications: PEPTIDE (1)...(131) wild-type rat intestinal fatty acid binding protein
B20: 113M, 72A (protein, listed as Rattus norvegicus)
chain: B1 chain with T72A, W73A, G74D, L113M
modifications: PEPTIDE (1)...(131) wild-type rat intestinal fatty acid binding protein
B21: 115P1, 72A (protein, listed as Rattus norvegicus)
chain: B1 chain with T72A, W73A, G74D, Q115P
modifications: PEPTIDE (1)...(131) wild-type rat intestinal fatty acid binding protein
B22: 115D1, 72A (protein, listed as Rattus norvegicus)
chain: B1 chain with T72A, W73A, G74D, Q115D
modifications: PEPTIDE (1)...(131) wild-type rat intestinal fatty acid binding protein
B23: 115N2, 72A (protein, listed as Rattus norvegicus)
chain: B1 chain with T72A, W73A, G74D, Q115N
modifications: PEPTIDE (1)...(131) wild-type rat intestinal fatty acid binding protein
B24: 115H1, 72A (protein, listed as Rattus norvegicus)
chain: B1 chain with T72A, W73A, G74D, Q115H
modifications: PEPTIDE (1)...(131) wild-type rat intestinal fatty acid binding protein
B25: 115T3, 72A (protein, listed as Rattus norvegicus)
chain: B1 chain with T72A, W73A, G74D, Q115T
modifications: PEPTIDE (1)...(131) wild-type rat intestinal fatty acid binding protein
B26: 106T2, 72A (protein, listed as Rattus norvegicus)
chain: B1 chain with T72A, W73A, G74D, R106T
modifications: PEPTIDE (1)...(131) wild-type rat intestinal fatty acid binding protein
B27: 115F1, 72A (protein, listed as Rattus norvegicus)
chain: B1 chain with T72A, W73A, G74D, Q115F
modifications: PEPTIDE (1)...(131) wild-type rat intestinal fatty acid binding protein
B28: 102A, 72A (protein, listed as Rattus norvegicus)
chain: B1 chain with T72A, W73A, G74D, L102A
modifications: PEPTIDE (1)...(131) wild-type rat intestinal fatty acid binding protein
B29: 106V1, 72A (protein, listed as Rattus norvegicus)
chain: B1 chain with T72A, W73A, G74D, R106V
modifications: PEPTIDE (1)...(131) wild-type rat intestinal fatty acid binding protein
B30: 115R1, 72A (protein, listed as Rattus norvegicus)
chain: B1 chain with T72A, W73A, G74D, Q115R
modifications: PEPTIDE (1)...(131) wild-type rat intestinal fatty acid binding protein
B31: 115V2, 72A (protein, listed as Rattus norvegicus)
chain: B1 chain with T72A, W73A, G74D, Q115V
modifications: PEPTIDE (1)...(131) wild-type rat intestinal fatty acid binding protein
B32: 117C, 72A (protein, listed as Rattus norvegicus)
chain: B1 chain with T72A, W73A, G74D, Y117C
modifications: PEPTIDE (1)...(131) wild-type rat intestinal fatty acid binding protein

Consider 32 molecules from US20060257938A1, “Method of screening for drugs that block ligand binding to a lipid binding protein” (priority 2005, published 2006).

Changes are numbered by the printed parent chain.

The first series is described as follows: Baseline fluorescence ratio Ro of probe in absence of analyte. Conditions: baseline fluorescence ratio of probe.
Turning to B1, the Ro turned out to be 0.205.

With B2, the Ro turned out to be 0.335.

On to B3, for which the Ro was determined as 0.191.

As for B4, the Ro was 0.241.

Regarding B5, the Ro came to 0.270.

Still in this series, the particulars now being: baseline fluorescence ratio of probe, no fatty acid.
Consider B6, for which the AvgOfRo was 0.28.

As to B7, the AvgOfRo amounted to 0.17.

As to B8, the AvgOfRo is on record as 0.40.

Regarding B9, the AvgOfRo is reported as 0.17.

Consider B10, for which the AvgOfRo is given as 0.24.

On to B1, for which the Ro turned out to be 0.205.

For the molecule B11, the AvgOfRo came to 0.22.

For the molecule B12, the AvgOfRo is reported as 0.24.

As to B13, the AvgOfRo turned out to be 0.24.

As for B14, the AvgOfRo came to 0.24.

For the molecule B15, the AvgOfRo is listed as 0.36 and the Ro is given as 0.389.

B16: the AvgOfRo is recorded as 0.16.

As to B17, the AvgOfRo came out at 0.26.

As to B18, the AvgOfRo is given as 0.16.

With B19, the AvgOfRo worked out at 0.39.

As for B20, the AvgOfRo amounted to 0.18.

Regarding B21, the AvgOfRo is given as 0.27.

Take B22: the AvgOfRo was 0.16.

Consider B2, for which the Ro was determined as 0.335.

Take B23: the AvgOfRo was 0.16.

For B3, the Ro is 0.191.

In the case of B24, the AvgOfRo is 0.15.

As to B25, the AvgOfRo turned out to be 0.21.

Take B26: the AvgOfRo is 0.26.

In the case of B27, the AvgOfRo was 0.23.

Take B28: the AvgOfRo is given as 0.24.

As for B29, the AvgOfRo was found to be 0.30.

Turning to B4, the AvgOfRo came out at 0.24.

Turning to B30, the AvgOfRo was 0.40.

Turning to B31, the AvgOfRo is listed as 0.28.

Turning to B32, the AvgOfRo stood at 0.25.

For the molecule B5, the AvgOfRo is listed as 0.28 and the Ro is 0.270.
